Substitutions are numbered along the chain they refer to. No constants are given. Whether binding was seen depends on the method and setting. Binding seen in cells or lysates may run through a third protein. Some entries that bind do so weakly or less than the wild type.

By UniProt entry, the sequences of proteins in these tests, tags left out. Residues count along the entry.
UniProt P62812, residues 28-455: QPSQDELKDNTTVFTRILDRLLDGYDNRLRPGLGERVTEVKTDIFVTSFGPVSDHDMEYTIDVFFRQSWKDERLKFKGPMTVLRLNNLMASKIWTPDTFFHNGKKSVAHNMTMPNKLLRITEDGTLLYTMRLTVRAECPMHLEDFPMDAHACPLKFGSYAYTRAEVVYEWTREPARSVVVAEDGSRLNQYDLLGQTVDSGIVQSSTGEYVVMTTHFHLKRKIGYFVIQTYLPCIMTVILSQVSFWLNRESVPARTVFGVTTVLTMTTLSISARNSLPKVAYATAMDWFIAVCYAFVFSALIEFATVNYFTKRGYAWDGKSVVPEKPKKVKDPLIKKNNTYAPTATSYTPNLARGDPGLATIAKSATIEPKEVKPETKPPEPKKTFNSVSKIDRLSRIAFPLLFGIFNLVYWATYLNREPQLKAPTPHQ
UniProt P12023, residues 18-770: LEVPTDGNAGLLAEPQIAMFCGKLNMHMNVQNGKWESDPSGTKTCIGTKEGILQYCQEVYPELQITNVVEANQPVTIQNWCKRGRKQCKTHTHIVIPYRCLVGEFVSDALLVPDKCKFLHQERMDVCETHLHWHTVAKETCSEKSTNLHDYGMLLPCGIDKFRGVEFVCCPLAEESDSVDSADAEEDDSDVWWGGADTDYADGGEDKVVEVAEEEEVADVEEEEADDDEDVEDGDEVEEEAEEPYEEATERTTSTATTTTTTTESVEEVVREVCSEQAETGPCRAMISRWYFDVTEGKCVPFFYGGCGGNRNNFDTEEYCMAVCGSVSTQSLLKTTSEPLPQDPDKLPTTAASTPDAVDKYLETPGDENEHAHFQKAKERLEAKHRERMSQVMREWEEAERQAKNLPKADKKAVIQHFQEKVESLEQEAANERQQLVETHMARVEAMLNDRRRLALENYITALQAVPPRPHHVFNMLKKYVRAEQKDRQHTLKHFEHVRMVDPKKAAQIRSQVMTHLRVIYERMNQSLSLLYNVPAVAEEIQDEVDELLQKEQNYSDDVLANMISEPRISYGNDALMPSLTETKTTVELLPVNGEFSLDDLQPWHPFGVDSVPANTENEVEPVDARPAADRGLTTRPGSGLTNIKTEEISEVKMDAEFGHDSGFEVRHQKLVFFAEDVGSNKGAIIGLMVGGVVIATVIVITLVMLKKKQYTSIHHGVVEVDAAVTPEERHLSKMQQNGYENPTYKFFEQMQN

This note sets out measurements from paper PMC5224924.

For experiment [1], the target named is T1, mKCC2 (KCC2 Y903A Y1087A) (UniProt Q63633).
T1 sequence: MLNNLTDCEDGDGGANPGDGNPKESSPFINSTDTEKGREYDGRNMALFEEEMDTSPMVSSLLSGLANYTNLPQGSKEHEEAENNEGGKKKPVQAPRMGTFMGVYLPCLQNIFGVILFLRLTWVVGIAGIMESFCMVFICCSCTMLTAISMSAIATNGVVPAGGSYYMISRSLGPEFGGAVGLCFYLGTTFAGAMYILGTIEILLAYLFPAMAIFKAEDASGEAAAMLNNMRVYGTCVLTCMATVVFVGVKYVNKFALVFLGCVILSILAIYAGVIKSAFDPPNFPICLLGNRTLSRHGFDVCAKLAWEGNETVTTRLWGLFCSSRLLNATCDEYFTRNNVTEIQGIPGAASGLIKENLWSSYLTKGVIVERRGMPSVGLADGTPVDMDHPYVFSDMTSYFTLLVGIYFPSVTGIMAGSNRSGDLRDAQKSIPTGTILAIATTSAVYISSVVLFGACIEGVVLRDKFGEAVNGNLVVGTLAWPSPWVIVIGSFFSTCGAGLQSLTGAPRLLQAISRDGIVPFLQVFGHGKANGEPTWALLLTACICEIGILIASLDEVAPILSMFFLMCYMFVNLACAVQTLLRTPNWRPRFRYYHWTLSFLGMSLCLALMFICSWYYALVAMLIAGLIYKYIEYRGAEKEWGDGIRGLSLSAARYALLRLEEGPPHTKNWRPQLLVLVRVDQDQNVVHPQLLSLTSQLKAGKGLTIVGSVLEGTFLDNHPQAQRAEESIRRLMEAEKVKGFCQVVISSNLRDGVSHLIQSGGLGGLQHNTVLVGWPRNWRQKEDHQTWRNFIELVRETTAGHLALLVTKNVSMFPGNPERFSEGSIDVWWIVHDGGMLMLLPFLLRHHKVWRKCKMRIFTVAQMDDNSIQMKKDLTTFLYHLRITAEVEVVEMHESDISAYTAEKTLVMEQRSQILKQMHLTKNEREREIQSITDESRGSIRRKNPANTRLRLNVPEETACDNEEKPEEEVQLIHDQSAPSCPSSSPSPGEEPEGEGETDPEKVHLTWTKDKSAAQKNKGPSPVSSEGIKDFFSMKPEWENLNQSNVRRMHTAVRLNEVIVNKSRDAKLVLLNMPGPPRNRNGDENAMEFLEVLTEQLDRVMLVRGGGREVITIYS
Put plainly: proximity ligation; HEK293 cells transfected, fixed with 4% PFA, permeabilised; anti-KCC2 (mouse) and anti-APP (rabbit) antibodies, Duolink II probes; cells transfected with one construct alone as controls.

For experiment [2], the target named is T2, K+-Cl- cotransporter KCC2 (UniProt Q63633).
T2 sequence: T1 sequence with A903Y, A1087Y
The experiment is described as above.

For experiment [3], the target named is T1, mKCC2 (KCC2 Y903A Y1087A). Put plainly: co-IP; HEK293 cells co-transfected; lysis buffer 50 mM Tris pH 7.5, 150 mM NaCl, 1 mM EDTA, 1% NP40; anti-KCC2, APPc or anti-GABAAR α1 antibody at 4°C overnight, protein A agarose; rabbit or mouse IgG as control; western blot. In general terms: In western blotting, separated proteins are transferred to a membrane and probed.

In experiment [4] the target is T2, K+-Cl- cotransporter KCC2. The description is as above.
The target in experiment [5] is GABAA receptor α1 subunit (UniProt P62812). The experiment is described as above.
Experiment [6] concerns the target T3, KCC2 (endogenous, mouse hippocampus) (mouse (endogenous in hippocampus)) (UniProt Q91V14).
T3 sequence: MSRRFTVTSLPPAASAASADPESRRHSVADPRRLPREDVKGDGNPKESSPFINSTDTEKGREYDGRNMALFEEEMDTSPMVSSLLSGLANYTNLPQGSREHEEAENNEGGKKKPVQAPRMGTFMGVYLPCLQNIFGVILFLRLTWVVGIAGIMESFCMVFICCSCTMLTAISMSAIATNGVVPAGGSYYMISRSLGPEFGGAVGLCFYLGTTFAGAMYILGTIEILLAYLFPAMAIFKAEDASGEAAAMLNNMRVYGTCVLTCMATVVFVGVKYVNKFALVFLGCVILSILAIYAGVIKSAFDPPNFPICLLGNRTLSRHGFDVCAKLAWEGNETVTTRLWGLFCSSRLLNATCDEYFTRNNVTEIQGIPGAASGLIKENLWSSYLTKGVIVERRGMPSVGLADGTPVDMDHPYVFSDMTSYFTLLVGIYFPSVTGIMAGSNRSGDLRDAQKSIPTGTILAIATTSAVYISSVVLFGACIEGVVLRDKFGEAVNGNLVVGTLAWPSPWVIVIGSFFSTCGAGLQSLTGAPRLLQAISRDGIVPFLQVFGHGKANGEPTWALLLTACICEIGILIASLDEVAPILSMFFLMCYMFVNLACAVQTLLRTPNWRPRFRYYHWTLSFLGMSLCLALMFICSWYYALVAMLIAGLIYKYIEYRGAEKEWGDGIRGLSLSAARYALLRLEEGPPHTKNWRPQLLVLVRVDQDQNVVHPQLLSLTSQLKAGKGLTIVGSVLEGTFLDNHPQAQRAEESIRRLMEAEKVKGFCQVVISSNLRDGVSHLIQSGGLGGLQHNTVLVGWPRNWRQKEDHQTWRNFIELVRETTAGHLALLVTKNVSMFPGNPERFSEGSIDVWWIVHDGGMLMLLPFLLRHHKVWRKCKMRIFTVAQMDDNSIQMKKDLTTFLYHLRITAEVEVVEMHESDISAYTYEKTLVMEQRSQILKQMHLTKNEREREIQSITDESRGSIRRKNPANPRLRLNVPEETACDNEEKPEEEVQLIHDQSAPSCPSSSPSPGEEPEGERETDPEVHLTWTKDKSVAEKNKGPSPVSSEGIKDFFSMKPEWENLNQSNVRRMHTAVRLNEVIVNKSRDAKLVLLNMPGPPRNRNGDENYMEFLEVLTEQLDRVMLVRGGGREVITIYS
Put plainly: co-IP; mouse hippocampal lysates, anti-KCC2 antibody, protocol as for HEK293 cells; western blot.

As for “full length human APP (hAPP695) (from UniProt P05067-4 18-695)”, the binding result in experiment [1] is given as “binds”; in experiment [2] it was “binds”; in experiment [3], “binds”; in experiment [4] it was “binds”; in experiment [5], “no binding”.
Take “APP (endogenous, mouse hippocampus) (from UniProt P12023 18-770)”: the binding entry in experiment [6] is given as “binds”.
